PubChem BioAssay AID1259286 – Sanger Institute, 2017
The deposit covers 794 reagents; this is a random part of them. Of all reagents, 17 (2.1%) were called active. 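Calls use knock-down alone only; synergy above 0.15 marked separately; viability seems capped at control level; exposure time not given.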 The record does not give: the amount of reagent, the time to read-out.

Test: 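Kinases whose loss adds to targeted drug killing of colorectal cancer cells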 (primary screen)
System: NCI-H630 human colorectal cancer cells
Knock-down reagent: siRNA pool against human genes
Treatment: anchor drugs BYL719 at 1 µM, cetuximab at 5 µg/ml or trametinib at 10 nM, or DMSO vehicle alone; exposure time not given
Read-out: 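Replicate-averaged viability as a fraction of non-targeting control, knock-down-alone robust z-score, and per-drug synergy scores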
Reading the numbers: viability z-score, knock-down alone: higher = more viable cells, weaker knock-down effect; viability vs control, knock-down alone: higher = more viable cells; synergy score with trametinib: higher = stronger synergistic killing with trametinib; synergy score with BYL719: higher = stronger synergistic killing with BYL719; synergy score with cetuximab: higher = stronger synergistic killing with cetuximab
Active means: 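Essential call: robust z-score of viability with siRNA alone lower than -3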
Meaning of the calls: active = essential when knocked down alone; inactive = not essential alone

| gene | PubChem SID | viability z-score, knock-down alone | viability vs control, knock-down alone (fraction of control) | synergy score with trametinib | synergy score with BYL719 | synergy score with cetuximab | Outcome |
| --- | --- | --- | --- | --- | --- | --- | --- |
| KIT | SID152151885 | 0.464 | 1 | -0.0479 | -0.0814 | -0.108 | inactive |
| PI4KA | SID135621251 | 0.464 | 1 | -0.0479 | -0.0814 | -0.0699 | inactive |
| MAP3K19 | SID135620896 | 0.263 | 0.992 | 0.00249 | 0.166 | 0.0765 | inactive |
| ITPKB | SID56479111 | 0.339 | 0.995 | -0.0524 | -0.0858 | -0.116 | inactive |
| PRPS2 | SID152153546 | -1.08 | 0.942 | -0.103 | 0.0525 | -0.0191 | inactive |
| CAMK1G | SID56478930 | -0.479 | 0.964 | -0.0818 | -0.114 | 0.0193 | inactive |
| NEK4 | SID152155431 | 0.231 | 0.991 | -0.0563 | -0.0895 | 0.0838 | inactive |
| TSKS | SID56479267 | 0.464 | 1 | 0.0135 | -0.0814 | -0.121 | inactive |
| STKLD1 | SID152151495 | 0.269 | 0.993 | -0.0317 | 0.0985 | 0.137 | inactive |
| SIK1 | SID152146842 | 0.464 | 1 | -0.0479 | -0.0295 | 0.0633 | inactive |
| MAP4K5 | SID56478702 | 0.464 | 1 | -0.0233 | 0.0399 | -0.0529 | inactive |
| BUB1 | SID152152440 | -2.89 | 0.873 | -0.103 | -0.0938 | 0.0519 | inactive |
| DYRK3 | SID152153037 | -1.48 | 0.926 | -0.0559 | -0.149 | -0.135 | inactive |
| SRP72 | SID135623816 | 0.464 | 1 | -0.0479 | -0.00327 | 0.0552 | inactive |
| FLT1 | SID152149290 | 0.464 | 1 | -0.0479 | 0.032 | -0.0153 | inactive |
| TRIB3 | SID56478723 | 0.464 | 1 | -0.0479 | -0.0139 | 0.0442 | inactive |
| FGFR2 | SID152155469 | 0.464 | 1 | -0.0479 | -0.0224 | 0.0141 | inactive |
| ALPK2 | SID152151764 | 0.464 | 1 | -0.0373 | -0.0523 | 0.0306 | inactive |
| PI4K2A | SID135621249 | 0.464 | 1 | -0.0479 | -0.0373 | 0.0142 | inactive |
| PRKAR1A | SID135621428 | 0.464 | 1 | -0.0479 | -0.0814 | 0.0352 | inactive |
| PIM2 | SID56479034 | 0.464 | 1 | -0.0479 | 0.0286 | -0.022 | inactive |
| PRKCE | SID135620860 | 0.464 | 1 | 0.0876 | -0.0263 | 0.0433 | inactive |
| ALPK3 | SID152152513 | 0.295 | 0.994 | -0.054 | 0.0986 | 0.13 | inactive |
| FN3K | SID56479098 | -0.641 | 0.958 | -0.0655 | 0.0342 | 0.0456 | inactive |
| PRKAG3 | SID56479232 | -4.15 | 0.826 | -0.0471 | 0.0409 | 0.0632 | active |
| PRKAB1 | SID134312708 | -0.489 | 0.964 | -0.0117 | -0.0035 | -0.0544 | inactive |
| TSSK3 | SID152155438 | 0.464 | 1 | 0.00837 | 0.103 | 0.0977 | inactive |

Continued; the last 8 above are carried over.
| gene | PubChem SID | viability z-score, knock-down alone | viability vs control, knock-down alone (fraction of control) | synergy score with trametinib | synergy score with BYL719 | synergy score with cetuximab | Outcome |
| --- | --- | --- | --- | --- | --- | --- | --- |
| PRKAR1A | SID135621428 | 0.464 | 1 | -0.0479 | -0.0814 | 0.0352 | inactive |
| PIM2 | SID56479034 | 0.464 | 1 | -0.0479 | 0.0286 | -0.022 | inactive |
| PRKCE | SID135620860 | 0.464 | 1 | 0.0876 | -0.0263 | 0.0433 | inactive |
| ALPK3 | SID152152513 | 0.295 | 0.994 | -0.054 | 0.0986 | 0.13 | inactive |
| FN3K | SID56479098 | -0.641 | 0.958 | -0.0655 | 0.0342 | 0.0456 | inactive |
| PRKAG3 | SID56479232 | -4.15 | 0.826 | -0.0471 | 0.0409 | 0.0632 | active |
| PRKAB1 | SID134312708 | -0.489 | 0.964 | -0.0117 | -0.0035 | -0.0544 | inactive |
| TSSK3 | SID152155438 | 0.464 | 1 | 0.00837 | 0.103 | 0.0977 | inactive |
| UCK1 | SID56478768 | 0.464 | 1 | -0.0479 | -0.000115 | 0.0528 | inactive |
| MSR1 | SID152150198 | 0.464 | 1 | -0.0479 | -0.0157 | 0.00741 | inactive |
| KCNH8 | SID134311656 | 0.159 | 0.988 | -0.00163 | 0.0289 | 0.0589 | inactive |
| EPHB6 | SID152155826 | 0.464 | 1 | -0.0479 | -0.0724 | -0.00868 | inactive |
| BRSK2 | SID152155603 | 0.464 | 1 | -0.0479 | 0.0128 | 0.027 | inactive |
| STK36 | SID135620924 | 0.464 | 1 | 0.00682 | -0.0814 | 0.0172 | inactive |
| PHKA2 | SID56479176 | -0.103 | 0.979 | -0.024 | -0.101 | -0.0347 | inactive |
| ITPKA | SID152154114 | 0.464 | 1 | -0.0479 | 0.0769 | 0.0585 | inactive |
| TRPM6 | SID56478975 | 0.464 | 1 | -0.0479 | -0.0814 | 0.019 | inactive |
| BCKDK | SID135620909 | 0.464 | 1 | -0.0346 | -0.0451 | -0.0373 | inactive |
| DGKK | SID135624472 | -0.159 | 0.976 | -0.0577 | 0.0216 | -0.00925 | inactive |
| PSTK | SID134320501 | 0.191 | 0.99 | -0.0577 | -0.0421 | -0.0296 | inactive |
| RIPK4 | SID135620968 | 0.464 | 1 | -0.0479 | -0.0759 | -0.121 | inactive |
| PEAK1 | SID152152075 | -0.927 | 0.947 | -0.098 | 0.0381 | -0.0417 | inactive |
| PAPSS2 | SID152148635 | 0.131 | 0.987 | 0.00964 | -0.0916 | -0.018 | inactive |
| STK3 | SID152146922 | 0.464 | 1 | -0.0479 | 0.0194 | 0.0601 | inactive |
| CDK9 | SID152156235 | 0.464 | 1 | -0.0401 | 0.0252 | 0.036 | inactive |
| AKAP9 | SID134321301 | 0.464 | 1 | -0.0466 | -0.0699 | -0.0839 | inactive |
| ROR2 | SID56478550 | 0.464 | 1 | 0.0213 | 0.00109 | 0.0874 | inactive |
| TAF1L | SID152155360 | 0.464 | 1 | -0.0479 | 0.000483 | -0.105 | inactive |
| NTRK2 | SID152152425 | 0.464 | 1 | -0.0479 | 0.0115 | -0.00288 | inactive |
| PHKA1 | SID152155157 | 0.464 | 1 | -0.0479 | -0.0814 | -0.00488 | inactive |
| NEK2 | SID56478772 | 0.464 | 1 | -0.0211 | 0.0797 | 0.0661 | inactive |
| RELA | SID135620694 | 0.199 | 0.99 | -0.0574 | -0.0299 | -0.109 | inactive |
| PFKFB4 | SID152152940 | 0.464 | 1 | -0.0479 | -0.0814 | -0.0119 | inactive |
| LMTK2 | SID152147902 | 0.464 | 1 | -0.0479 | 0.000138 | 0.0348 | inactive |
| PRKAR2A | SID152153424 | 0.305 | 0.994 | -0.0536 | 0.0233 | -0.0115 | inactive |
| BCR | SID152154242 | 0.464 | 1 | 0.0145 | -0.0728 | 0.0782 | inactive |
| BMAL1 | SID134314841 | -0.931 | 0.947 | 0.00517 | -0.0155 | 0.198 | inactive |
| MAP3K10 | SID56478692 | 0.464 | 1 | -0.0479 | -0.0814 | -0.121 | inactive |
| CRKL | SID152150429 | 0.464 | 1 | -0.0479 | -0.0814 | -0.0625 | inactive |
| CDK5R2 | SID56479219 | 0.464 | 1 | -0.0479 | -0.0475 | 0.00252 | inactive |
| MAP2K5 | SID135620764 | 0.464 | 1 | -0.0465 | -0.0814 | -0.0583 | inactive |
| PDGFRA | SID135620628 | 0.464 | 1 | -0.0479 | -0.00543 | -0.0174 | inactive |
| CDK12 | SID152151382 | 0.464 | 1 | -0.0479 | -0.0106 | -0.089 | inactive |
| VRK2 | SID152152279 | -1.8 | 0.914 | -0.129 | -0.135 | 0.0909 | inactive |
